In the data set the target is SP1 (specificity protein 1) (Mus musculus) (UniProt O89090). Put plainly: EMSA. Particulars: protein in an extract, protein details: endogenous, MEF nuclear extract.

Sequences of proteins named here, by UniProt entry; tags and fusion partners are left off. Residues count along the entry.
UniProt O89090, 2-784: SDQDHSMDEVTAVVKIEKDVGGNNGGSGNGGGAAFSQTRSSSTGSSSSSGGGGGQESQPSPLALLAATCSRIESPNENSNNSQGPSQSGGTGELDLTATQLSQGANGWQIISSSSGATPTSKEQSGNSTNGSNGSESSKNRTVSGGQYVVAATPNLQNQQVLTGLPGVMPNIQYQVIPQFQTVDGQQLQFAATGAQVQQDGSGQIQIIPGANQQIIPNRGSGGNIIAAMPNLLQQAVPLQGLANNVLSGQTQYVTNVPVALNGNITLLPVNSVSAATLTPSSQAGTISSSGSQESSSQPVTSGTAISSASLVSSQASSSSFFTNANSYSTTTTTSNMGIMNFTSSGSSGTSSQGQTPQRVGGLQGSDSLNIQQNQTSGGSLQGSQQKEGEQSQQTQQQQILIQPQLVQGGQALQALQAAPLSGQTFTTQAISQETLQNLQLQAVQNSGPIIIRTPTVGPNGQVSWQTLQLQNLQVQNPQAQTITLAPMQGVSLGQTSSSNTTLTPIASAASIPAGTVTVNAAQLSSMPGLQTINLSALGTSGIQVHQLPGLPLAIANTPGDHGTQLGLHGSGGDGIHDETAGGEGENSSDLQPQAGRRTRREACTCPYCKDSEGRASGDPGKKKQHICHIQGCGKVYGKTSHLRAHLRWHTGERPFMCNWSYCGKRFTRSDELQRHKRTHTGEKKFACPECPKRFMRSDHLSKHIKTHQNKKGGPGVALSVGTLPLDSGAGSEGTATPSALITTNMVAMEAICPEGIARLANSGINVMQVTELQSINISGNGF

At least one result comes from cells or an extract, where the contact may be indirect. Negatives hold for the conditions tested.

On to “TGCCATGGGCGAAGTTTTGATCTGCTTC (double strand) [mouse IL-31 promoter SP1 probe Mut]”, for which, under “variant of mouse IL-31 promoter SP1 probe WT”, the binding result is on record as “no binding”.

As to “TGCCATGGGCGGGCCTTTGATCTGCTTC (double strand) [mouse IL-31 promoter SP1 probe WT]”, the binding result (20 mM HEPES pH 7.9, 50 mM KCl, 3 mM MgCl2, poly(dI-dC), room temperature, anti-SP1 supershift, label: 32P) is on record as “binds”.
